This note sets out measurements from paper PMC12540712.

Chains of the proteins cited; added tags and fusions are not shown. Lines headed by an entry give the natural chain unless they say otherwise; changes in a name come on top.
UniProt P28340: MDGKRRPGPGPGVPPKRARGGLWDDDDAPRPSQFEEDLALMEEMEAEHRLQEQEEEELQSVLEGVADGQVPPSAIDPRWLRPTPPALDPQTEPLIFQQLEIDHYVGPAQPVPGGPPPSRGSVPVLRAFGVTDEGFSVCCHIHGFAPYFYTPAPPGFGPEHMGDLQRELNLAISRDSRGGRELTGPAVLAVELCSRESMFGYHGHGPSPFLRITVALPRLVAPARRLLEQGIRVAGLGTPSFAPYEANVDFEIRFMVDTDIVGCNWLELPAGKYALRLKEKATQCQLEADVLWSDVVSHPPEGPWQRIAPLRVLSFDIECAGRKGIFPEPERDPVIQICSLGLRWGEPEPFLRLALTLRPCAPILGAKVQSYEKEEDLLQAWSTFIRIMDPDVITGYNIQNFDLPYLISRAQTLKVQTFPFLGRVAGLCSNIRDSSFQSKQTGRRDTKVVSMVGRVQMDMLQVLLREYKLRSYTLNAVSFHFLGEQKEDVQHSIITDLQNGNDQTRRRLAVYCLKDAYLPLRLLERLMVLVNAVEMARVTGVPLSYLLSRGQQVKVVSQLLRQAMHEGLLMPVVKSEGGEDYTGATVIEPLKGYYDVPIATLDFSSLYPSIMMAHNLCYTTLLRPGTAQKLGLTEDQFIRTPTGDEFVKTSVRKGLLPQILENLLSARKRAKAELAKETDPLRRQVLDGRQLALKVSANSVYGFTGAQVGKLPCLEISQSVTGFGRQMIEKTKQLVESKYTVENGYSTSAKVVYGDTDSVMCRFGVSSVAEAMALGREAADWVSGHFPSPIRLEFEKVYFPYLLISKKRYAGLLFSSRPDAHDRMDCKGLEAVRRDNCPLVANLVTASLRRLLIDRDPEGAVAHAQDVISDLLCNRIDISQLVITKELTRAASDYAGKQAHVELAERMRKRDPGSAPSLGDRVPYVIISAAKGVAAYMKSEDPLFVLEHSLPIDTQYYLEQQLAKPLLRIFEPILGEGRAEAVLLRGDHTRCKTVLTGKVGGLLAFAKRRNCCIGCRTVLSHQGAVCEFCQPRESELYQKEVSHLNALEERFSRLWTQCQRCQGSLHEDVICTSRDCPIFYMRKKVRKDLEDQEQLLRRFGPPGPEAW

For the experiment, the target named is T1, FLAG-And-1, full-length And-1 (FL, 1–1129) (human) (UniProt O75717).
T1 sequence: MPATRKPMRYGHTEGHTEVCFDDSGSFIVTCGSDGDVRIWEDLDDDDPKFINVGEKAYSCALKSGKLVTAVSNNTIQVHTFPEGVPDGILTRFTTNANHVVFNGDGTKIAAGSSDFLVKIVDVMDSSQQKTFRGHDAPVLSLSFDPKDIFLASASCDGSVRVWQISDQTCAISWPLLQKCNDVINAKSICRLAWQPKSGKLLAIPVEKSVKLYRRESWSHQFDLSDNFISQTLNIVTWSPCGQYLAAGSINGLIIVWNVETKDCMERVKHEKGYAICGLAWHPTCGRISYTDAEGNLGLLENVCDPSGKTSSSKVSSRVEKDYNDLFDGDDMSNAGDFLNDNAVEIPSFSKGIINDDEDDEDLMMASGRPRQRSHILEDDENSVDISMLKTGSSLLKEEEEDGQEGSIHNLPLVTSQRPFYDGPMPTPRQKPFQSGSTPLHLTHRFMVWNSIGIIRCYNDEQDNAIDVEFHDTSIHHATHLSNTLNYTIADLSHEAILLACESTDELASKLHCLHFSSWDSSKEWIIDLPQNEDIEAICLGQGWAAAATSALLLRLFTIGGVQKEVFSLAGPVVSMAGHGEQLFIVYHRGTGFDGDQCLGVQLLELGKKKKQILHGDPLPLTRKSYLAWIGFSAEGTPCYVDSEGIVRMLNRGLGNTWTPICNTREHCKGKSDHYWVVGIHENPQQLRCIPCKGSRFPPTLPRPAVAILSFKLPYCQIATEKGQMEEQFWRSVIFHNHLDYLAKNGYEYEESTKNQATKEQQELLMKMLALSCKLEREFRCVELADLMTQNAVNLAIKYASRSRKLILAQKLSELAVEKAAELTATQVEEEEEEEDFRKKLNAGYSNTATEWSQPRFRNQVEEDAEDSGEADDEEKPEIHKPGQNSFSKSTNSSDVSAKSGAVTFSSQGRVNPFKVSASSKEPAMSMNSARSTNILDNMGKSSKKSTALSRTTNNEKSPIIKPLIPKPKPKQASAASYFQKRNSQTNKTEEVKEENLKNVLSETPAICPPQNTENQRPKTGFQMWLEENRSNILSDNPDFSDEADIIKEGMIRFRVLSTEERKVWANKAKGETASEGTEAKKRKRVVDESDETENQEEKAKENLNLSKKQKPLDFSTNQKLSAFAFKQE
Briefly: co-IP; p125 with WT And-1 or T826A mutant; set-up shown only in Supplementary Fig. 3H.

Results are given in words; binding and its absence hold for the method and conditions named. In cells and extracts the contact can be indirect. Some binding calls cover weakened binding; strength is not graded here. Tags and fused reporters may be left off the sequences shown.

For “catalytic subunit of DNA polymerase δ (p125) (from UniProt P28340 1-1107)”, the binding result is reported as “binds”.
